Results reported in the supplement of paper PMC9433722.
Counter-ions that a name gives are not always drawn. The list shows a part of the results. Many values rest on one well or one pass, so single values are uncertain.

Columns and labels:
[1] = test system: Saos-2; assay: cell viability (CCK-8) relative to DMSO control (% of control); higher = less cytotoxic; conditions: 10 µM; 48 h
[2] = test system: U2OS; assay: as above; conditions: 10 µM; 48 h

Row | SMILES | cell viability [1] | cell viability [2]
1 | CCN(Cc1ccncc1)C(=O)C(CO)c1ccccc1 (stereo not drawn) [Tropicamide] | 58.8 | 107
2 | Cc1ccnc2c1NC(=O)c1cccnc1N2C1CC1 [Nevirapine] | 112 | 113
3 | C[C@@](Cc1ccc(O)c(O)c1)(NN)C(=O)O [S(-)-Carbidopa . monohydrate] | 55.8 | 115
4 | COc1cc2nc(N3CCN(C(=O)c4ccco4)CC3)nc(N)c2cc1OC [Prazosin hydrochloride] | 56.1 | 123
5 | CN(C)CCC=C1c2ccccc2COc2ccccc21 [Doxepin · Hydrochloride] | 113 | 93.2
6 | Cc1oncc1C(=O)Nc1ccc(C(F)(F)F)cc1 [Leflunomide] | 67.9 | 86
7 | CN[C@H](CC(C)C)C(=O)N[C@H]1C(=O)N[C@@H](CC(N)=O)C(=O)N[C@H]2C(=O)N[C@H]3C(=O)N[C@H](C(=O)N[C@H](C(=O)O)c4cc(O)cc(O)c4-c4cc3ccc4O)[C@H](O)c3ccc(c(Cl)c3)Oc3cc2cc(c3O[C@@H]2O[C@H](CO)[C@@H](O)[C@H](O)[C@H]2O[C@H]2C[C@](C)(N)[C@H](O)[C@H](C)O2)Oc2ccc(cc2Cl)[C@H]1O [Vancomycin . hydrochloride] | 134 | 83.9
8 | CN(C)CCC=C1c2ccccc2CCc2ccccc21 [Amitriptyline·HCl] | 64.1 | 108
9 | CC(C)NCC(O)c1ccc(O)c(O)c1 (racemic) [(±) Isoproterenol·HCl] | 59.5 | 113
10 | Cc1c(O)cccc1C(=O)N[C@@H](CSc1ccccc1)[C@H](O)CN1C[C@H]2CCCC[C@H]2C[C@H]1C(=O)NC(C)(C)C [Nelfinavir Mesylate] | 61.7 | 113
11 | C[C@](N)(Cc1ccc(O)c(O)c1)C(=O)O [Alpha-methyl-L-dopa sesquihydrate] | 72.3 | 94.4
12 | CC1(C)O[C@@H]2C[C@H]3[C@@H]4C[C@H](F)C5=CC(=O)C=C[C@]5(C)[C@@]4(F)[C@@H](O)C[C@]3(C)[C@]2(C(=O)CO)O1 [Fluocinolone Acetonide] | 67.7 | 103
13 | O=S(=O)(O)CCS [Mesna] | 103 | 88.4
14 | CN1CCc2cccc3c2[C@H]1Cc1ccc(O)c(O)c1-3 [(R)-(-)-Apomorphine·HCl] | 50.4 | 95.7
15 | Cn1ccnc1S [Methimazole] | 73.5 | 106
16 | C[C@H]1[C@H](NC(=O)/C(=N\OC(C)(C)C(=O)O)c2csc(N)n2)C(=O)N1S(=O)(=O)O [Aztreonam] | 66.2 | 108
17 | Cc1ccc(NC(=O)c2ccc(CN3CCN(C)CC3)cc2)cc1Nc1nccc(-c2cccnc2)n1 [Imatinib . mesylate] | 52.4 | 118
18 | CC(CCc1ccccc1)NCC(O)c1ccc(O)c(C(N)=O)c1 (stereo not drawn) [Labetalol . hydrochloride] | 110 | 99.9
19 | OC[C@H]1O[C@@H](O[C@@H]2[C@@H](CO)OC(O)(CO)[C@H]2O)[C@H](O)[C@@H](O)[C@H]1O (mixture of isomers) [Lactulose] | 117 | 86.6
20 | CC(=O)[C@H]1CC[C@H]2[C@@H]3CCC4=CC(=O)CC[C@]4(C)[C@H]3CC[C@]12C [Progesterone] | 65.5 | 111
21 | NCCCC(N)(C(=O)O)C(F)F (stereo not drawn) [Eflornithine·HCl] | 110 | 91
22 | CC(C)[C@H](N)C(=O)OCC(CO)OCn1cnc2c(=O)[nH]c(N)nc21 (stereo partly drawn) [Valganciclovir·HCl] | 133 | 81.4
23 | CC[C@H](C)C(=O)O[C@H]1C[C@H](O)C=C2C=C[C@H](C)[C@H](CC[C@@H](O)C[C@@H](O)CC(=O)O)[C@H]21 [Pravastatin sodium] | 106 | 79.8
24 | COc1ccc(-c2ccc3cc(C(=O)O)ccc3c2)cc1C12CC3CC(CC(C3)C1)C2 [Adapalene] | 35.8 | 116

Full records, looked up by structure.
NCCCC(N)(C(=O)O)C(F)F (stereo not drawn) [Eflornithine·HCl] as listed: cell viability [1]: 110; cell viability [2]: 91
CN1CCc2cccc3c2[C@H]1Cc1ccc(O)c(O)c1-3 [(R)-(-)-Apomorphine·HCl] as listed: cell viability [1]: 50.4; cell viability [2]: 95.7
